Reference: PMC10897450
These are yes or no findings as the source states them, for the method shown. Binding seen in cells or lysates may run through a third protein. Some entries that bind do so weakly or less than the wild type. Where a sequence is shown, tags or fusion partners need not be part of it.

Sequences of proteins named here, by UniProt entry; tags and fusion partners are left off. A change or cut given only in a name is not applied to a line headed by its entry.
UniProt P17157: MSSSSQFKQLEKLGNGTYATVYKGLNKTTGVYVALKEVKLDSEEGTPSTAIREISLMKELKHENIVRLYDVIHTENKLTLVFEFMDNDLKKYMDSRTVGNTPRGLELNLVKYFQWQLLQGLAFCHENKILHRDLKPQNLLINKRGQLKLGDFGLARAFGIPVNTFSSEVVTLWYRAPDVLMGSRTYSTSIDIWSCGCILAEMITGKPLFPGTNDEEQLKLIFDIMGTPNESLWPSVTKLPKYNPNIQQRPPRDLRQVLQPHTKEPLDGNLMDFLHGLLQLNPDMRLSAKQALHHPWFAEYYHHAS

T1: Whi7-GFP (S. cerevisiae) (UniProt P36167)
T1 sequence: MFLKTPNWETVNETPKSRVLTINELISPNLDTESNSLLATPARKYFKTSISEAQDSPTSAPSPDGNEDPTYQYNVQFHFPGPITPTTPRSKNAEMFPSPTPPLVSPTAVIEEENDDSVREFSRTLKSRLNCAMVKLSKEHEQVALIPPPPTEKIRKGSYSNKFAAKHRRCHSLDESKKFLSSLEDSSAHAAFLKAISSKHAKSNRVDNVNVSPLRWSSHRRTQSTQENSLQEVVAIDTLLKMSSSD

T2: Whi7-HA (S. cerevisiae) (UniProt P36167)
T2 sequence: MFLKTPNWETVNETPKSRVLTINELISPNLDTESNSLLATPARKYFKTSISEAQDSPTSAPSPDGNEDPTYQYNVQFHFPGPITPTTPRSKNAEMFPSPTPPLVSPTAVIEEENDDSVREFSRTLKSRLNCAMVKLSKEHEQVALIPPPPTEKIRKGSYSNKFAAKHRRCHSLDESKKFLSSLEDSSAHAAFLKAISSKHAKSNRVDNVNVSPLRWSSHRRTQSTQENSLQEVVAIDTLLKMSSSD


What was measured:
Whi7-GFP (S. cerevisiae) = molecular target: T1, Whi7-GFP (S. cerevisiae); test: co-IP; Whi7-GFP immunoprecipitated from crude yeast extracts; Pho85-HA or Pho85^E53A-HA detected by western blot in TE, NR and IP fractions
Whi7-HA (S. cerevisiae) = molecular target: T2, Whi7-HA (S. cerevisiae); test: co-IP; Whi7-HA immunoprecipitated from crude extracts of cells expressing myc-tagged Swi4; Swi4 detected by western analysis

binding (Whi7-GFP (S. cerevisiae))	binding (Whi7-HA (S. cerevisiae))	Molecule
no binding		Pho85-HA (from UniProt P17157 1-305) (enzyme)
binds		Pho85^E53A-HA (from UniProt P17157 1-305) (enzyme)
	binds	myc-tagged Swi4 (protein, UniProt P25302 1-1093) MPFDVLISNQKDNTNHQNITPISKSVLLAPHSNHPVIEIATYSETDVYECYIRGFETKIVMRRTKDDWINITQVFKIAQFSKTKRTKILEKESNDMQHEKVQGGYGRFQGTWIPLDSAKFLVNKYEIIDPVVNSILTFQFDPNNPPPKRSKNSILRKTSPGTKITSPSSYNKTPRKKNSSSSTSATTTAANKKGKKNASINQPNPSPLQNLVFQTPQQFQVNSSMNIMNNNDNHTTMNFNNDTRHNLINNISNNSNQSTIIQQQKSIHENSFNNNYSATQKPLQFFPIPTNLQNKNVALNNPNNNDSNSYSHNIDNVINSSNNNNNGNNNNLIIVPDGPMQSQQQQQHHHEYLTNNFNHSMMDSITNGNSKKRRKKLNQSNEQQFYNQQEKIQRHFKLMKQPLLWQSFQNPNDHHNEYCDSNGSNNNNNTVASNGSSIEVFSSNENDNSMNMSSRSMTPFSAGNTSSQNKLENKMTDQEYKQTILTILSSERSSDVDQALLATLYPAPKNFNINFEIDDQGHTPLHWATAMANIPLIKMLITLNANALQCNKLGFNCITKSIFYNNCYKENAFDEIISILKICLITPDVNGRLPFHYLIELSVNKSKNPMIIKSYMDSIILSLGQQDYNLLKICLNYQDNIGNTPLHLSALNLNFEVYNRLVYLGASTDILNLDNESPASIMNKFNTPAGGSNSRNNNTKADRKLARNLPQKNYYQQQQQQQQPQNNVKIPKIIKTQHPDKEDSTADVNIAKTDSEVNESQYLHSNQPNSTNMNTIMEDLSNINSFVTSSVIKDIKSTPSKILENSPILYRRRSQSISDEKEKAKDNENQVEKKKDPLNSVKTAMPSLESPSSLLPIQMSPLGKYSKPLSQQINKLNTKVSSLQRIMGEEIKNLDNEVVETESSISNNKKRLITIAHQIEDAFDSVSNKTPINSISDLQSRIKETSSKLNSEKQNFIQSLEKSQALKLATIVQDEESKVDMNTNSSSHPEKQEDEEPIPKSTSETSSPKNTKADAKFSNTVQESYDVNETLRLATELTILQFKRRMTTLKISEAKSKINSSVKLDKYRNLIGITIENIDSKLDDIEKDLRANA
